Among the data in PubChem BioAssay AID720706 (Broad Institute, 2013) are OD600 change and RFP signal change values, retold here.

The structures appear in SMILES notation. The list shows a part of the results.

The assay in a line: reduced GFP signal of wild-type E. coli, primary screen, bacterial rRNA inhibitor project, GFP/RFP fluorescence, OD600, single point (AID 720706). Conditions: E. coli WT GFP vs humanized-ribosome RFP mutants, 24 h; OD600 change: measured here: OD600 growth, DMSO median 0, no signal -100; RFP signal change: measured here: RFP humanized mutant strains, DMSO median 0, no signal -100, concentration not given here.
For `COC(=O)C1(C)COP(=O)(N2CCCCCC2)OC1` (stereo unspecified), the OD600 change is 8.37% and the RFP signal change was -3.34%.

On to `CC(C)c1ccc(OP(=O)(Nc2ccccn2)Oc2ccccc2F)cc1` (stereo unspecified), for which the OD600 change is -4.04% and the RFP signal change came to 4.91%.

For `COc1ccccc1OP(C)(=O)Nc1cc(Cl)ccc1C` (stereo unspecified), the OD600 change is -13.4% and the RFP signal change is -4.36%.

For `CC(C)NC(=O)NP(=O)(Oc1ccccc1)Oc1ccccc1`, the OD600 change was found to be 6.75% and the RFP signal change amounted to 0.235%.

As to `O=C(OC1CN2CCC1CC2)c1cccc2[nH]cnc12` (stereo unspecified), the OD600 change is 9.39% and the RFP signal change was determined as 1.15%.

Regarding `Cc1cc(C)cc(OP(C)(N)=O)c1` (stereo unspecified), the OD600 change worked out at 6.66% and the RFP signal change is 2.87%.

Take `O=[N+]([O-])c1cc([N+](=O)[O-])c(Nc2cccnc2)c([N+](=O)[O-])c1`: the OD600 change turned out to be 6.94% and the RFP signal change is -16%.

For the compound `C[As](=O)(O)c1cccc(C(=O)O)c1`, the OD600 change came to 11% and the RFP signal change was -1.27%.

Take `O=[As](O)(c1ccc(O)cc1)c1ccccc1O`: the OD600 change stood at 3.67% and the RFP signal change is -0.278%.

As to `O=[N+]([O-])c1ccc(-c2cc([N+](=O)[O-])c(O)c([N+](=O)[O-])c2)cc1`, the OD600 change was -78.6% and the RFP signal change is -20.8%.

For `COc1cc(C(=O)NCC2(N3CCOCC3)CCCCC2)ccc1OCC(C)C`, the OD600 change was -13.2% and the RFP signal change is -0.427%.

With `[N-]=[N+]=NC1CCCCC1NC(=O)c1cc([N+](=O)[O-])cc([N+](=O)[O-])c1` (stereo unspecified), the OD600 change is 12.2% and the RFP signal change turned out to be 11.9%.

`Cc1ccc(OP(=O)(Nc2ccc([N+](=O)[O-])cn2)Oc2ccc(C)cc2)cc1`: the OD600 change is 14.6% and the RFP signal change came to 4.62%.

As for `CC(C)(C)c1ccc(OP(C)(=O)Nc2ccc(SC(F)(F)F)cc2)cc1` (stereo unspecified), the OD600 change is -10.2% and the RFP signal change is -0.615%.

In the case of `Cc1cccc(C)c1OP(C)(N)=O` (stereo unspecified), the OD600 change was determined as 6.3% and the RFP signal change was 1.21%.

On to `O=[N+]([O-])c1ccc2c(c1)C=Nc1ccccc1O2`, for which the OD600 change is -21.4% and the RFP signal change worked out at 16.5%.

In the case of `Cc1ccc2nc3c(c(C)c2c1)CC(C(Cl)Cl)S3` (stereo unspecified), the OD600 change turned out to be 0.875% and the RFP signal change was 0.513%.

For `COc1ccc(N/C(=N/P(=O)(N2CCOCC2)N2CCOCC2)N2CCOCC2)cc1`, the OD600 change turned out to be 9.1% and the RFP signal change was 1.66%.

In the case of `COc1ccccc1-c1ccccn1.O=[N+]([O-])c1cc([N+](=O)[O-])c(O)c([N+](=O)[O-])c1`, the OD600 change came out at 4.27% and the RFP signal change was -1.13%.

For `Cc1c2c(nc3ccccc13)SC(C(Cl)Cl)C2` (stereo unspecified), the OD600 change was -71.9% and the RFP signal change is -17.3%.

On to `Cc1cc(=O)[nH]c(N[N+](=O)[O-])n1`, for which the OD600 change was determined as 1.48% and the RFP signal change was -2.5%.

Regarding `CCN(CC)CCCOC(=O)C(O)(c1ccccc1)c1ccccc1`, the OD600 change is 4.96% and the RFP signal change was -3.75%.

In the case of `O=P1(N(CCCl)CCCl)OCCCN1CCCl` (stereo unspecified), the OD600 change was 13% and the RFP signal change amounted to 3.56%.

As to `O=P1(N(CCCl)CCCl)Nc2ccccc2N1`, the OD600 change turned out to be 12% and the RFP signal change is 1.93%.

In the case of `COc1ccc2nc(NP(=O)(c3ccccc3)c3ccccc3)sc2c1`, the OD600 change was -4.12% and the RFP signal change was determined as 2.13%.

Consider `COc1cc(I)ccc1[As](=O)(O)O`, for which the OD600 change amounted to 7.03% and the RFP signal change turned out to be 7.11%.

As to `O=C(OC1CN2CCC1CC2)c1cccc([N+](=O)[O-])c1` (stereo unspecified), the OD600 change was 20.4% and the RFP signal change was -1.4%.

`CCOC(=O)c1ccc(NC(=O)C(C)(CCl)SC)cc1` (stereo unspecified): the OD600 change came to 1.36% and the RFP signal change came out at 1.13%.

As for `CCOC(=O)c1ccc(NP(C)(=O)Oc2ccc(OC)cc2)cc1` (stereo unspecified), the OD600 change is 5.44% and the RFP signal change came to 2.58%.

With `CP(=O)(Nc1ccccn1)Oc1ccc(Cl)cc1` (stereo unspecified), the OD600 change turned out to be 9.36% and the RFP signal change was -4.2%.

`COP1(=S)c2c(C)nn(CCC#N)c2N=C(c2ccc(F)cc2)N1C` (stereo unspecified): the OD600 change is -0.035% and the RFP signal change is 0.426%.

As to `CP(=O)(Nc1ccc(SC(F)(F)F)cc1)Oc1ccc(Cl)cc1` (stereo unspecified), the OD600 change is -56.9% and the RFP signal change was -12.9%.

Consider `CP(=O)(Oc1ccccc1)OC(c1ccccc1)C(F)(F)F` (stereo unspecified), for which the OD600 change was 4.76% and the RFP signal change is -0.415%.

As for `COC(=O)C1(C)COP(=O)(N2CCCC2)OC1` (stereo unspecified), the OD600 change was -4.9% and the RFP signal change is 1.65%.

As to `CP(=O)(NC(=O)Nc1ccccc1)Oc1ccccc1` (stereo unspecified), the OD600 change is -1.15% and the RFP signal change turned out to be 0.37%.

As for `O=C(Nc1ccncc1[N+](=O)[O-])c1ccc([N+](=O)[O-])cc1[N+](=O)[O-]`, the OD600 change was found to be 8.11% and the RFP signal change stood at 7.1%.

Take `CCOC(=O)Nc1cccc([As](=O)(O)O)c1`: the OD600 change was 34.1% and the RFP signal change is 3.08%.

Consider `O=P(Nc1ccccn1)(c1cccc2ccccc12)c1cccc2ccccc12`, for which the OD600 change came out at 21.1% and the RFP signal change was -0.4%.

Regarding `Cc1cc(SC(NC=O)C(Cl)(Cl)Cl)ncn1` (stereo unspecified), the OD600 change turned out to be 8.16% and the RFP signal change was -1.08%.

With `COc1ccccc1OP(C)(=O)Nc1ccccc1` (stereo unspecified), the OD600 change came to 17.3% and the RFP signal change amounted to 5.49%.

On to `CP(=O)(Nc1ccccc1Br)Oc1ccccc1` (stereo unspecified), for which the OD600 change was 3.04% and the RFP signal change was found to be 3.46%.

Turning to `O=[N+]([O-])c1ccc(Nc2ccc(Oc3ccc([N+](=O)[O-])cc3[N+](=O)[O-])cc2)c([N+](=O)[O-])c1`, the OD600 change was found to be 6.55% and the RFP signal change worked out at 2.02%.

Regarding `O=C(O)C(=O)c1ccc(N(CCCl)CCCl)cc1.c1ccc(Nc2ccccc2)cc1`, the OD600 change is -4.99% and the RFP signal change was -1.73%.

Turning to `CCOC(=O)Nc1ccc([As](=O)(O)O)c(O)c1`, the OD600 change was found to be 14.5% and the RFP signal change was determined as 7.12%.

With `CC1CCNP(=O)(N(CCCl)CCCl)O1` (stereo unspecified), the OD600 change stood at 9.49% and the RFP signal change was 1.17%.

Take `COP(=O)(OC)N1CC1c1ccccc1` (stereo unspecified): the OD600 change is 7.99% and the RFP signal change stood at 2.32%.

Turning to `CCCCOc1ccc(C(=O)NCC2(N3CCCCC3)CCCCC2)cc1OC`, the OD600 change amounted to 4.91% and the RFP signal change is -0.3%.

As for `CN1CCCCC1COC(=O)C1(O)c2ccccc2CCc2ccccc21` (stereo unspecified), the OD600 change was 4.17% and the RFP signal change was -6.04%.
